According to patent US8569504B2, “Imidazopyridine compound” (Ono Pharmaceutical Co., Ltd., priority 2009, dated 2013):

Tested on: HepG2 human liver cancer cell lines
Experiment: Measurement of cell toxicity using HepG2 human liver cancer cell lines (ATP, Celltiter Glo)
Format: cell-based
Details: ratio of HepG2 cell toxicity (Table 2) to human chymase inhibitory activity (Table 1)
Procedure: The cells were then exposed to the compound of the present invention and the comparative compounds for 24 hours. The compound of the present invention and the comparative compounds were dissolved with DMSO, and then diluted 100 times with culture liquid comprising L-glutamine, non-essential amino acids and 1% bovine fetal serum which were added to minimum essential medium (MEM). […] The cells were dissolved with the assay buffer in the measurement kit, and the ATP concentration released from the cells was measured based on luciferin-luciferase enzyme activity. Light emission was measured with a SpectraMax plate reader (Molecular Device).

SMILES | IC10 (cell toxicity data)/IC90 (chymase inhibitory activity data) | IC50 (cell toxicity data)/IC50 (chymase inhibitory activity data)
Cc1cccc2scc(Cn3c(SCCCC(=O)O)nc4ccccc43)c12 [Comparative Compound 1, 4-(1-((4-methylbenzothiophen-3-yl)methyl)benzimidazol-2-ylthio)butanoic acid, reference compound] | 54 | –
Cc1cccc2scc(Cc3c(SCCCC(=O)O)nc4ccccn34)c12 [Comparative Compound 2, 4-[3-(4-methyl-benzo[b]thiophen-3-ylmethyl)-imidazo[1,2-a]pyridin-2-ylsulfanyl]butanoic acid, reference compound] | 24 | 644
O=C(O)c1ccccc1Sc1nc2ccccc2n1Cc1cccc2ccccc12 [Comparative Compound 3, 2-{[1-(1-naphthylmethyl)-1H-benzimidazol-2-yl]thio}benzoic acid, reference compound] | 18 | 308
Cc1cccc2c1c(Cn1c(Sc3ccccc3C(=O)O)nc3ccccc31)cn2C [Comparative Compound 4, 2-([1-[(1,4-dimethyl-1H-indol-3-yl)methyl]-1H-benzimidazol-2-yl]thio)benzoic acid, reference compound] | 67 | 1120
Cc1cccc2[nH]cc(Cc3c(-c4ccc5ccccc5c4C(=O)O)nc4ccccn34)c12 [Example 7, 2-[3-[(4-methyl-1H-indol-3-yl)methyl]imidazo[1,2-a]pyridin-2-yl]-1-naphthoic acid] | 921 | 132000
Cc1ccc2nc(-c3ccccc3C(=O)O)c(Cc3cn(C)c4cccc(C)c34)n2c1 [Example 11, 2-{3-[(1,4-dimethyl-1H-indol-3-yl)methyl]-6-methylimidazo[1,2-a]pyridin-2-yl}benzoic acid] | 919 | 17391
Cc1cccc2c1c(Cc1c(-c3ccccc3C(=O)O)nc3ccccn13)cn2C [Example 13, 2-{3-[(1,4-dimethyl-1H-indol-3-yl)methyl]imidazo[1,2-a]pyridin-2-yl}benzoic acid] | 675 | 15143
CCn1cc(Cc2c(-c3ccccc3C(=O)O)nc3ccccn23)c2c(C)cccc21 [Example 15, 2-{3-[(1-ethyl-4-methyl-1H-indol-3-yl)methyl]imidazo[1,2-a]pyridin-2-yl}benzoic acid] | 479 | 8900
Cc1cccc2[nH]cc(Cc3c(-c4ccc5ccccc5c4C(=O)O)nc4ccc(F)cn34)c12 [Example 16, 2-{6-fluoro-3-[(4-methyl-1H-indol-3-yl)methyl]imidazo[1,2-a]pyridin-2-yl}-1-naphthoic acid] | 4833 | 131000
Cc1c(F)ccc2[nH]cc(Cc3c(-c4ccccc4C(=O)O)nc4ccccn34)c12 [Example 19, 2-{3-[(5-fluoro-4-methyl-1H-indol-3-yl)methyl]imidazo[1,2-a]pyridin-2-yl}benzoic acid] | 583 | 22455
Cc1cccc2c1c(Cc1c(-c3ccc4ccccc4c3C(=O)O)nc3ccccn13)cn2CCN1CCOCC1 [Example 23-(4), 2-[3-({4-methyl-1-[2-(4-morpholinyl)ethyl]-1H-indol-3-yl}methyl)imidazo[1,2-a]pyridin-2-yl]-1-naphthoic acid] | 9875 | 86500
